The experiment concerns the target Bile salt export pump (Homo sapiens, UniProt O95342). Briefly: Inhibition of human BSEP overexpressed in Sf9 cell membrane vesicles assessed as uptake of [3H]-taurocholate in presence of ATP measured after 15 to 20 mins by membrane vesicle transport assay. The class given is ADME, cell-based.

By UniProt entry, the sequences of proteins in these tests, tags left out.
UniProt O95342, whole entry: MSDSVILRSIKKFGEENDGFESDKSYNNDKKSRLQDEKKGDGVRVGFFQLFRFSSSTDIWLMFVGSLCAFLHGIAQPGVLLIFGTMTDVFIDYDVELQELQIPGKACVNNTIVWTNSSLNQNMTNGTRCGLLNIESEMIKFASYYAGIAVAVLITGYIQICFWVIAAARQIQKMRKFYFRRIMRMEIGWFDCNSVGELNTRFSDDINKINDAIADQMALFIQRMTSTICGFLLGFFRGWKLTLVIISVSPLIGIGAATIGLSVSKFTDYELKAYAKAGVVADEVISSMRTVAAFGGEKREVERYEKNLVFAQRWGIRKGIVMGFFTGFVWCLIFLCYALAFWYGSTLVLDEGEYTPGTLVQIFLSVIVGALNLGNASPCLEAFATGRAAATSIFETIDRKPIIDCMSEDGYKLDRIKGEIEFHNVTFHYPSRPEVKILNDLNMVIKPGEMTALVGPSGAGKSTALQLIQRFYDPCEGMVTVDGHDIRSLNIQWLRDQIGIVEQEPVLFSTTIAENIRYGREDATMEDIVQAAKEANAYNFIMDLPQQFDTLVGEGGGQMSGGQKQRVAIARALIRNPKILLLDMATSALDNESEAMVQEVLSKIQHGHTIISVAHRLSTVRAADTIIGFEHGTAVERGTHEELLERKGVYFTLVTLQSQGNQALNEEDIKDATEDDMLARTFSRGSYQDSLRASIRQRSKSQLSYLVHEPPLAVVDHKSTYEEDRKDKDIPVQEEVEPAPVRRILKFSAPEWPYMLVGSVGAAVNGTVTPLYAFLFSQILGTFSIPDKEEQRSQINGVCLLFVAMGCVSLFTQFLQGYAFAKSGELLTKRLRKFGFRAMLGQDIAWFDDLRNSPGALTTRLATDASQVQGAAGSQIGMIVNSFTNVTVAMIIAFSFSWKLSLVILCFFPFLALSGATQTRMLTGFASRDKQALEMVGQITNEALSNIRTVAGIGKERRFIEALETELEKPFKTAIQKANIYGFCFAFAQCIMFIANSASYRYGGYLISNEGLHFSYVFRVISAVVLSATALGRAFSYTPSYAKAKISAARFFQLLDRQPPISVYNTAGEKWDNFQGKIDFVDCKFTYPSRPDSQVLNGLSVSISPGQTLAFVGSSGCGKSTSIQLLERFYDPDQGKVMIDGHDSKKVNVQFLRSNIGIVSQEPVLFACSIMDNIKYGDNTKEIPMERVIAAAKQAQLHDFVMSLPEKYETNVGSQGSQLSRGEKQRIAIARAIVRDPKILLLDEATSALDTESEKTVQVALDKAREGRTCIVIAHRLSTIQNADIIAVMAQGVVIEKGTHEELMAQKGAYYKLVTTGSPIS

With `O=C1CCc2ccc(OCCCCN3CCN(c4cccc(Cl)c4Cl)CC3)cc2N1` [ARIPIPRAZOLE], the IC50 is > 133 µM.

`Clc1ccc2c(c1)CCc1cccnc1C2=C1CCNCC1` [DESLORATADINE]: the IC50 was > 133 µM.

`CN1CCN(CCCN2c3ccccc3Sc3ccc(Cl)cc32)CC1` [PROCHLORPERAZINE]: the IC50 is > 133 µM.

Turning to `Cc1nc2n(c(=O)c1CCN1CCC(c3noc4cc(F)ccc34)CC1)CCCC2` [RISPERIDONE], the IC50 is > 133 µM.

The term IC50 denotes the concentration at which inhibition is half-maximal.
